# Experimental data from publication PMC7819943, “Rice protein-binding microarrays: a tool to detect cis-acting elements near promoter regions in rice”.
# Some of the results follow.
# Target: T1, OsSMF1 (Oryza sativa, UniProt Q6ZLB0 1-436)
# T1 sequence: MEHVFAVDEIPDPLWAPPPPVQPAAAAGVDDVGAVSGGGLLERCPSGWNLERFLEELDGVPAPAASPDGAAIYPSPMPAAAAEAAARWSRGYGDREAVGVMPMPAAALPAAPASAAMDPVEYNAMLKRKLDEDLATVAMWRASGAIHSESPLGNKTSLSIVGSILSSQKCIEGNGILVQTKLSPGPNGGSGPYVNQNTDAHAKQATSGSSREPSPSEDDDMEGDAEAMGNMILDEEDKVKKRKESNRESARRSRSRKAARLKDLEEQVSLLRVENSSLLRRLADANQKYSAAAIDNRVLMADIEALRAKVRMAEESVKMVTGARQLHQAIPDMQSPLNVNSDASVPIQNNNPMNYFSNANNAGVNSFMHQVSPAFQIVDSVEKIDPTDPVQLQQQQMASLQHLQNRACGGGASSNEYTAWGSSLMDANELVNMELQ
# Assay: protein-binding microarray (RPBM); PBS, 2% BSA, 51.3 ng/ul salmon testes DNA, 50 uM zinc acetate, 200 nM TF, 25 C, 1 h; high values mean tight binding
# Settings: protein: recombinant; tags: N-terminal polyhistidine and DsRed monomer fusion (pET32a); chain copies: 2; label: CyDye5-dUTP incorporated in the synthesized complementary strand; 3' TTTTT single-stranded linker to array surface; dsDNA, one strand shown
# Procedure, shortened: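 Binding signal is reported as fluorescence intensity per feature (arbitrary units) from an Axon 4000B scanner. Incubation used 200 nM of each Ni–NTA-purified, N-terminally polyhistidine- and DsRed-fused transcription factor from E. coli BL21-CodonPlus on a double-stranded custom Agilent array for 1 h at 25 °C, with 50 µM zinc acetate in the buffer, followed by washing.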
row,Sequence,binding signal
1,ATGCCCCGCTTCTCCTTCCAAGCATATCCTACCACATCGTCGGAGTCACCTAGTGCAG,3370 fluorescence intensity (a.u.)
2,CAGACTTGCGGTGGATGGGGCGGTGGGGAAAGCATAAATGCGGAGTCACCTAGTGCAG,3910 fluorescence intensity (a.u.)
3,CATCAGATGCGCCCATCGCTTGAAGGAGAGACGCCGAGACCGGAGTCACCTAGTGCAG,27300 fluorescence intensity (a.u.)
4,ATCTCTGATGTCTCACCTACACAACGTGGATCACAAGTCGCGGAGTCACCTAGTGCAG,3240 fluorescence intensity (a.u.)
5,GAGGTGACATGTCATTGTTACATGGTAAAGTGAAGAACAGCGGAGTCACCTAGTGCAG,3780 fluorescence intensity (a.u.)
6,TATATATATATATATATATATATATATATATATATATATACGGAGTCACCTAGTGCAG,3210 ± 33.9 fluorescence intensity (a.u.)
7,CGAAGATTAATAAAGTAGGTAAAGTGATGTGGCGAATGGTCGGAGTCACCTAGTGCAG,9540 fluorescence intensity (a.u.)
8,CCTCTGCAGCAGCGTTTTATTAACAAACATGAAAATCTCCCGGAGTCACCTAGTGCAG,23200 fluorescence intensity (a.u.)
9,TTATTATTATCTTTCTCAGAAATGAAGCACTCAGAGTTGCCGGAGTCACCTAGTGCAG,23000 fluorescence intensity (a.u.)
10,TCCTCTTGTATTCAGCTTTTCGTTTACGTGGAAACTCTACCGGAGTCACCTAGTGCAG,4690 fluorescence intensity (a.u.)
11,CATTACTCTGAAAACTATATGTGTGTGTGCATCACATCTCCGGAGTCACCTAGTGCAG,3660 fluorescence intensity (a.u.)
12,ATAAGGACGGAGGGAATACAAAGTTAAAATCCGTCATCTTCGGAGTCACCTAGTGCAG,3140 fluorescence intensity (a.u.)
13,GCAATGGCGGTGGCGTTCGCGCCATCGACATGGACGGCGACGGAGTCACCTAGTGCAG,3200 fluorescence intensity (a.u.)
14,GGTGGCGCTCACCCTCGCGCTGACCGCCATGTGGCCTCCGCGGAGTCACCTAGTGCAG,3790 fluorescence intensity (a.u.)
15,GGGTGGTGGAAGGACAACGTCAGCTTCGACCGCGCGGGCCCGGAGTCACCTAGTGCAG,4390 fluorescence intensity (a.u.)
16,CTTCGGTCGGCATGCGCACGTGGGCATCGGCGCTCCGAGTCGGAGTCACCTAGTGCAG,3780 fluorescence intensity (a.u.)
17,TGATGCGTTCAATCTAGTTTACATCTGCAATGTCATGATTCGGAGTCACCTAGTGCAG,4330 fluorescence intensity (a.u.)
18,TTAGCAATGTAGGCGCCACATCAGCTAAAATCATCATCCACGGAGTCACCTAGTGCAG,8430 fluorescence intensity (a.u.)
19,TTCCTAAGTTCGAAAACTATTTTGTAATAATACACGTAAGCGGAGTCACCTAGTGCAG,4420 fluorescence intensity (a.u.)
20,CTCTCGGCACGCAGCCACGCACGCACGCACGCACGCATGCCGGAGTCACCTAGTGCAG,4850 fluorescence intensity (a.u.)
21,AGGCTCTCTATAAGAGATCCATGTCAGCATATTTTCCTACCGGAGTCACCTAGTGCAG,16000 fluorescence intensity (a.u.)
22,TTGTAAATAAAACTTTTATAAACGTGTTCTTAGCGATTTACGGAGTCACCTAGTGCAG,3260 fluorescence intensity (a.u.)
23,CGATTAGCCCCGCCATGTGGCTGTGTGCGATTCGAGGGTCCGGAGTCACCTAGTGCAG,7110 fluorescence intensity (a.u.)
24,GGGCCTACGTGGGTCCCACGTTGACTCAGCCGTCACGTAGCGGAGTCACCTAGTGCAG,11500 fluorescence intensity (a.u.)
25,AATCGTAGCAACCATCACCACCGTGTTGTTCATCGTGCACCGGAGTCACCTAGTGCAG,3720 fluorescence intensity (a.u.)
26,TCAAAGATGCTCATAGATGCAGGGTTTACGTGTGTGTTCACGGAGTCACCTAGTGCAG,3620 fluorescence intensity (a.u.)
27,TGTGAATTATGTGGGATGATAATTTAACATACTTGTATTTCGGAGTCACCTAGTGCAG,38200 fluorescence intensity (a.u.)

row,Sequence,binding signal
1,CCTAACACGGACAGGCCGCACGTAGCTGTAAGGAACCCCGCGGAGTCACCTAGTGCAG,4080 fluorescence intensity (a.u.)
2,GTAATGCGCAAGATAGTTGTGCTCATGTCTGACTCCTTTGCGGAGTCACCTAGTGCAG,3530 fluorescence intensity (a.u.)
3,ACACCTTCACACCATCATCTCTTTGCTTGATTCACCTGGACGGAGTCACCTAGTGCAG,3660 fluorescence intensity (a.u.)
4,CTACAAATCCCTATCCTGTGATGTCCTACGTACCCCATCACGGAGTCACCTAGTGCAG,3300 fluorescence intensity (a.u.)
5,CATTCTTAATGTAAAATATGAATGTAAATGAAATGTATGCCGGAGTCACCTAGTGCAG,3840 fluorescence intensity (a.u.)
6,GCCGCCATCCCACAGCTTTCCTAGGGTTAATCCTCCCGCGCGGAGTCACCTAGTGCAG,3450 fluorescence intensity (a.u.)
7,TGCCATCCATGCACGTCATACATATATAGAACTTATACAACGGAGTCACCTAGTGCAG,3310 fluorescence intensity (a.u.)
8,TCGGTTTCCTCCGCCGCCGCCGCCACCTCCTCCTCCTCCTCGGAGTCACCTAGTGCAG,3280 fluorescence intensity (a.u.)
9,GAGAGAAAAGAAAATAATCTGGCTTTAAACATTACACACACGGAGTCACCTAGTGCAG,3420 fluorescence intensity (a.u.)
10,TAGCCTTCGCCGTCGCCGCCGCCGCCGCCGCCCTCGCCGTCGGAGTCACCTAGTGCAG,3280 fluorescence intensity (a.u.)
11,GCCCGAGGCACGTAGAACCACGCCAAGATGCGTGAACCCCCGGAGTCACCTAGTGCAG,23000 fluorescence intensity (a.u.)
12,CGTGGAGGCGTGGATGCGGCGGTGCCAGCGCTGGCCTCGTCGGAGTCACCTAGTGCAG,3780 fluorescence intensity (a.u.)
13,TCTATAGGTATTCATGTATGTGCACGTATACGTCTTTCATCGGAGTCACCTAGTGCAG,4850 fluorescence intensity (a.u.)
14,GGCCGGCCGCGGCGGGTGGTGGGGCAGGGCCTGACGACGACGGAGTCACCTAGTGCAG,3500 fluorescence intensity (a.u.)
15,TCCGCTGGCCACGGCGGCGCCCGCGGCGTACTACCCGGTCCGGAGTCACCTAGTGCAG,3870 fluorescence intensity (a.u.)
16,AGCTGGAATCGTGCAGCGCCACGTGGAGGGGTTATTTGCACGGAGTCACCTAGTGCAG,8000 fluorescence intensity (a.u.)
17,GTATGAGCATCAGCATCAGATCATCATTGGAATCAAAGCACGGAGTCACCTAGTGCAG,4040 fluorescence intensity (a.u.)
18,ATATTAGGTATGACACGTATGTCCACATCAAATCTTCACGCGGAGTCACCTAGTGCAG,9210 fluorescence intensity (a.u.)
19,CCCGCCGCCGTGACGCTCACCTGTTGCTCGCACATCCATGCGGAGTCACCTAGTGCAG,3880 fluorescence intensity (a.u.)
20,GCTCCCCATCTACGCGCCGCCAAGTGTAGTGATCCCCATCCGGAGTCACCTAGTGCAG,3340 fluorescence intensity (a.u.)
21,ATCATCCAATGGACGGTCCAGATCCACCGCATCCACGTATCGGAGTCACCTAGTGCAG,5690 fluorescence intensity (a.u.)
22,TATTGTACTAGGTGGGCTGAGCAAAGTCGAGTCAGCTACCCGGAGTCACCTAGTGCAG,5880 fluorescence intensity (a.u.)
23,CTTGCACAAGTACAGTACGTGTACATGCATGTATGCTACCCGGAGTCACCTAGTGCAG,5700 fluorescence intensity (a.u.)
24,CGTCGCCTCGTCGGCCGACGAGATCCGCGGCCGGCGGAGTCGGAGTCACCTAGTGCAG,32700 fluorescence intensity (a.u.)
25,TTGAGATATAATTGCTACGTAAGTGCCACGTCAATGCCACCGGAGTCACCTAGTGCAG,21400 fluorescence intensity (a.u.)
26,CTGATGTGATGACGCCATTTCGCTGACGATTTGTGCCGTTCGGAGTCACCTAGTGCAG,6620 fluorescence intensity (a.u.)
27,GTAAAGAACGGACCCATACCCACGTACCCAATGGGTAAGACGGAGTCACCTAGTGCAG,3150 fluorescence intensity (a.u.)

# Reprinted from the listing for reference:
row,Sequence,binding signal
8,TCGGTTTCCTCCGCCGCCGCCGCCACCTCCTCCTCCTCCTCGGAGTCACCTAGTGCAG,3280 fluorescence intensity (a.u.)
9,GAGAGAAAAGAAAATAATCTGGCTTTAAACATTACACACACGGAGTCACCTAGTGCAG,3420 fluorescence intensity (a.u.)
